Values of other authors, collected in US20100022576A1 (priority 2006, published 2010).

Conditions: in vivo

Clc1ccc2c(c1)CCc1cccnc1C2=C1CCNCC1 [desloratadine]
Time to mean peak plasma concentrations: ≤ 3 h
